This passage reports swimming speed results from patent publication US10835513B2, “Methods and treatments for the learning and memory deficits associated with Noonan syndrome” (The Regents of the University of California, priority 2013, dated 2020).

This data set deals with Ptpn11^D61G/+ mice. The data set can be described thus: Morris water maze (hidden platform) in Ptpn11^D61G/+ mice treated with lovastatin. In kind it is in vivo. To be noted: lovastatin 10 mg/kg s.c. How it is done:
FIG. 6 are graphs showing that Lovastatin treatment reverses spatial learning and memory and LTP deficits in Ptpn11^D61G/+ mice. […] Left, Representative immunoblot showing p-Erk (upper) and total Erk (lower) levels in Ptpn11^D61G/+ mice and WT. Hippocampi were dissected 6 hr after the 4th day of lovastatin injection (subcutaneous (s.c.) injections, 10 mg/kg). Right, Bar graph displaying normalized p-Erk levels (mean±s.e.m.). n=7-8 per group. t-test, *P<0.05. […] Two-way ANOVA followed by Bonferroni post-test, WT/Veh vs. Ptpn11^D61G/+/Veh, *P<0.05, **P<0.01; Ptpn11^D61G/+/Veh vs. Ptpn11^D61G/+/Lova, +P<0.05. […] Two-way ANOVA with genotype as between-subjects factor and drug treatment as within-subjects factor, effect of genotype: F(1, 45)=19.79, ***P<0.0001, interaction: F (1,45)=0.4489, P=0.506.
SL327 (Tocris) was dissolved in DMSO (16 mg/ml) and was injected intraperitoneally once daily, 30 min before the water maze experiment at a dose of 32 mg/kg. The volume of a single injection was under 80 μl. Lovastatin (Mevinolin, Sigma) was prepared as previously described^21. […]
In the hidden platform-version of Morris water maze, mice were trained with two blocks of 2 trials (ITI=1 min) spaced about 45 min apart. […] Memory was assessed in probe trials that were given after completion of training as described in the main text. […] Data were acquired and analyzed using WaterMaze software (Actimetrics).

Molecules are shown by their SMILES.

For `CC[C@H](C)C(=O)O[C@H]1C[C@@H](C)C=C2C=C[C@H](C)[C@H](CC[C@@H]3C[C@@H](O)CC(=O)O3)[C@H]21` [Lovastatin], the swimming speed (Ptpn11^D61G/+ (D61G) mice) came to 14.2 ± 1.1 cm/s and the swimming speed (WT mice) is 17.9 ± 0.8 cm/s.
